Experimental data published in PubChem BioAssay AID2685 (National Center for Advancing Translational Sciences (NCATS), 2010).
The list shows a part of the results. The main result of the screen is listed elsewhere. These columns were measured beside it and carry no call. Most of these compounds were active or inconclusive in the main read-out, so they are no random draw. Potencies come from curve fits of mixed quality, noted in brackets.

Assay: qHTS Assay for Lipid Storage Modulators in Drosophila S3 Cells;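 as to cell number change: cells counted by Cell Tracker Red CMTPX staining in the red channel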
Conditions: BODIPY lipid droplet fluorescence, 18-24 h; for cell number change: measured here: cell count max response, cells fed with added oleic acid
Description: NIH Molecular Libraries Probe Production Centers Network [MLPCN] NIH Chemical Genomics Center [NCGC] MLPCN Grant: 1 R03 MH085686-01 Assay Submitter (PI): Beller, Mathias; Max-Planck-Institut fur Biophysikalische Chemie NCGC Assay Overview: Storing lipids as a reservoir for energy or the anabolism of elementary metabolites is a common feature of probably all cells and is conserved from bacteria to humans. The universal cellular lipid storage organelle is the so-called lipid storage droplet (LD). Although ubiquitous, LDs share a simple structure composed of a hydrophobic core that harbors the storage lipids, which is shielded by a droplet-specific phospholipid monolayer to which proteins are attached. The current model of LD biogenesis involves an incorporation of the lipid core into the membrane leaflets of the endoplasmic reticulum (ER) followed by a subsequent budding-like maturation of a LD, which ultimately pinches off. Once released, LD volume can increase by localized lipogenesis or fusion of existing droplet. Storage lipids are re-mobilized enzymatically by lipase activity. Lipase regulation in the adipocyte is heavily studied and involves multiple components including catecholamine signaling, the LD-associated proteins Perilipin and comparative gene identification (CGI-58) and at least two lipases named hormone sensitive lipase (HSL) and adipocyte triglyceride lipase (ATGL). LD regulation outside of the adipocyte is poorly understood and only few components are known. However, there is an urgent need to learn more about ectopic fat depots as mislocalized storage of lipids, for example in the liver or muscle, is an eminent health problem associated with insulin resistance or the metabolic syndrome. We developed a laser-scanning cytometer assay to enable 1,536-well screening and combined the results of the small molecules screen with an RNAi database based on lipid storage.
Triacsin C (Sigma-Aldrich T-4540), an inhibitor of long-chain fatty acyl CoA synthetase that blocks synthesis of triglycerides, was used as a positive control for lipid under-storage. A total of 23 nL of compound solution of different concentrations were transferred to the assay plates using a Kalypsys pin tool equipped with a 1,536-pin array containing 10-nL slotted pins (FP1S10, 0.457-mm diameter, 50.8 mm long; V&P Scientific). One microliter of oleic acid (400 uM) was added, and the plate was lidded with stainless steel rubber gasket lined lids containing pinholes. […] Fluorescence was detected by excitation of the fluorophores with a 488-nm laser on an Acumen Explorer (TTP Lab Tech). The total intensity in channel 2 (500-530 nm) reflected lipid droplet accumulation. Cells were detected using channel 3 (575-640 nm) with 5-um width and 100-um depth filters. The ratio of the number of objects in PMT channel 2 over the number of objects in PMT channel 3 was also calculated. Percent activity was computed relative to an internal control (100% inhibited lipid droplet deposition due to the presence of 20 uM Triacsin C), which was added to 32 wells/plate.

[1] = measured here: lipid fluorescence (Fed channel) AC50, cells fed with added oleic acid
[2] = measured here: cell number channel AC50, cells fed with added oleic acid

Row | SMILES | cell number change | AC50 [1] | AC50 [2]
1 | CCOC(=O)C1=C(O)C(Nc2nccs2)(C(F)(F)F)N=C1C (stereo unspecified) | -13.2% | – | –
2 | COc1ccc(C(=O)NCc2ccc(C)cc2)cc1S(=O)(=O)N1CCCC1 | -6.16% | – | –
3 | O=S(=O)(c1ccc(SCCOc2ccc(Cl)cc2)nc1)N1CCCC1 | -17.8% | 920 nM [rising, full curve, poor fit] | –
4 | COC(=O)CNC(=O)C1Cc2ccccc2CN1S(=O)(=O)c1cccs1 (stereo unspecified) | -16.6% | – | –
5 | Cc1nn(CC(=O)NCCc2cccs2)c(=O)c2cc3ccccc3n12 | 11.3% | 18400 nM [rising, single point] | –
6 | CC(C)N(C(=S)Nc1cccc(S(=O)(=O)N(C)C)c1)c1ccccc1 | 2.45% | – | –
7 | O/N=C1/CCCCc2sccc21 | 1.81% | – | 2590 nM [rising, partial curve, poor fit]
8 | COP1(=O)C[C@@H](O)[C@@H](O)[C@@H](COCc2ccccc2)O1 (stereo partly specified) | -32.5% | – | –
9 | CN(CCC#N)C(=O)COC(=O)c1ccc2c(c1)C(=O)N(C1CCCCC1)C2=O | -33.9% | 32600 nM [falling, partial curve] | –
10 | COc1ccc(CNC(=O)C(C#N)c2nc3ccccc3nc2N2CCN(C)CC2)cc1 (stereo unspecified) | -34.3% | 2060 nM [rising, partial curve] | 32600 nM [falling, single point]
11 | O=C(c1cccc(S(=O)(=O)N2CCN(c3ccc(F)cc3)CC2)c1)N1CCCCCCC1 | – | – | 1840 nM [rising, partial curve]
12 | O=C(NCC(=O)N(c1cccnc1)C(C(=O)NC1CCCC1)c1ccc(F)cc1)c1ccco1 (stereo unspecified) | -0.194% | 651 nM [rising, partial curve] | –
13 | COc1ccc(N2C(=O)CC(C3CCCO3)C2=O)cc1 (stereo unspecified) | 8.18% | 11600 nM [rising, partial curve, poor fit] | –
14 | COc1cccc(CNc2cc(CSc3ccc(Cl)cc3)nc(C)n2)c1 | 138% | 2910 nM [rising, partial curve] | 6510 nM [rising, partial curve]
15 | O=C(C1CC1)N1CCc2cc(Br)cc(S(=O)(=O)NCCCN3CCCC3)c21 | – | 6510 nM [falling, single point] | –
16 | Clc1cccc(CN2CCC(Cc3ccccc3)CC2)c1 | -35.4% | – | 13000 nM [falling, partial curve, poor fit]
17 | COc1ccc(NC(=O)CN(C)C(=O)c2cccnc2Sc2ccc(C)c(C)c2)cc1 | 20.2% | 2310 nM [rising, full curve, poor fit] | –
18 | Cn1cccc1C(=O)OCC(=O)Nc1ccc2c(c1)CCC2 | -12.1% | 4.61 nM [falling, full curve, poor fit] | –

Part of the list above, field by field.
O=C(c1cccc(S(=O)(=O)N2CCN(c3ccc(F)cc3)CC2)c1)N1CCCCCCC1
  AC50 [2]: 1840 nM [rising, partial curve]
O=C(NCC(=O)N(c1cccnc1)C(C(=O)NC1CCCC1)c1ccc(F)cc1)c1ccco1 (stereo unspecified)
  cell number change: -0.194%
  AC50 [1]: 651 nM [rising, partial curve]
